For two molecules, binding results are on record in publication PMC10827914 (Cellular and Molecular Life Sciences: CMLS, 2024).

Chains of the proteins cited; added tags and fusions are not shown. Lines headed by an entry give the natural chain unless they say otherwise; changes in a name come on top. Residues count along the entry.
UniProt P15144: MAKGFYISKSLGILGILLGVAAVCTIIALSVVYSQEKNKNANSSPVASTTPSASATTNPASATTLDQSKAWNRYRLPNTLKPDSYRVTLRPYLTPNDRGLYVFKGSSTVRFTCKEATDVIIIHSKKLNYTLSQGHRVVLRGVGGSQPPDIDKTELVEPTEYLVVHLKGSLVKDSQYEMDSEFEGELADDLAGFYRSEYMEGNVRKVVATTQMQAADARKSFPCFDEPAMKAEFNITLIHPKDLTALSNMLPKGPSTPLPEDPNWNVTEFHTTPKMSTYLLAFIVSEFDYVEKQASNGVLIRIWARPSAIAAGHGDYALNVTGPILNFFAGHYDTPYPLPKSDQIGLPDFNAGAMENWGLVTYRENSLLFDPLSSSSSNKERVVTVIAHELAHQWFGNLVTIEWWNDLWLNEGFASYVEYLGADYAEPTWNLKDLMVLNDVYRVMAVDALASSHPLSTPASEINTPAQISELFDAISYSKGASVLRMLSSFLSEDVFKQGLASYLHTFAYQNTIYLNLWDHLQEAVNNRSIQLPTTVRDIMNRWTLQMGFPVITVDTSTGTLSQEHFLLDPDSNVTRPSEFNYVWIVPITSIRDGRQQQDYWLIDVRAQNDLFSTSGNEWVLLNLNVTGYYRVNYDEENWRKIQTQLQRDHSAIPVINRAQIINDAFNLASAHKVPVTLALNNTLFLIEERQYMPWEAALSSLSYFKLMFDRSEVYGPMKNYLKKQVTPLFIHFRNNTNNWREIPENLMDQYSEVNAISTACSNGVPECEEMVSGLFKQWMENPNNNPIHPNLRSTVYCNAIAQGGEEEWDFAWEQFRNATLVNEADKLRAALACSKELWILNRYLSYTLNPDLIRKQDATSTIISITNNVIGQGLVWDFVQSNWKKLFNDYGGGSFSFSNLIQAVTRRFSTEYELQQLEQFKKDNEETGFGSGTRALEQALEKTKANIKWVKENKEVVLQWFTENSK
natural soluble CD13 from human plasma (sCD13) (human (endogenous in human serum)): residues 33-967 of P15144
UniProt P10645: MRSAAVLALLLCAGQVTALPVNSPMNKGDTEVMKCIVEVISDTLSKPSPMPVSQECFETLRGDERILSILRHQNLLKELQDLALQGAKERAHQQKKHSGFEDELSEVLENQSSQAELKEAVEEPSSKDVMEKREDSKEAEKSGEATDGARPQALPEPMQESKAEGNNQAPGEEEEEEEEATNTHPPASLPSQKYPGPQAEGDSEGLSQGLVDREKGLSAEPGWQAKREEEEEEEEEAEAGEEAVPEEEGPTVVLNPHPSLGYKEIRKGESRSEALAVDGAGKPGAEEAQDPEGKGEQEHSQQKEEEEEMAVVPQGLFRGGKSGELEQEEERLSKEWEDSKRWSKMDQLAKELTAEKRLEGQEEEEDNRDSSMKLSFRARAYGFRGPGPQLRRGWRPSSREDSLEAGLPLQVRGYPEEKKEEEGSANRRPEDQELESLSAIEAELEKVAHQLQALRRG

In experiment [1] the target is membrane form of CD13 expressed by endothelial cells (HUVEC) (human (endogenous in HUVEC)) (UniProt P15144). The experiment can be described thus: flow cytometry on cells; competition: HUVEC or HL-60 cells with mAb WM15 (0.13 nM) mixed with competitor (G4 0-10 µM), DPBS with 5% normal human serum, 1 h at 4 °C; FITC-labeled goat anti-mouse IgG; only the binder purified. For orientation: Flow cytometry measures light scatter and fluorescence of single cells or particles in a stream.

Experiment [2] has as its target His-tagged recombinant human CD13 (rCD13) (human) (UniProt P15144). Briefly: ELISA; competition of the binding of rCD13 to mAb WM15 by peptides or G4-TNF; performed as described in Supplementary Fig. S2 (not shown); both purified. In general terms: In an ELISA, binding on a coated surface is turned into a signal by an enzyme label.
Experiment [3] has as its target membrane form of CD13 expressed by HL60 promyelocytic leukemia cells (human (endogenous in HL-60)) (UniProt P15144). The experiment can be described thus: flow cytometry on cells; data not shown: competition of mAb WM15 binding to HL60 cells with G4 or control peptide; only the binder purified.
The target of experiment [4] is natural soluble CD13 from human plasma (sCD13) (human (endogenous in human serum)) (UniProt P15144). Briefly: ELISA; competition: plates coated with mAb WM15 (5 μg/mL), filled with human serum containing sCD13 (diluted 1:2) mixed with competitors in DPBS, 0.1% BSA, 0.05% Tween-20, 2 h at room temperature; bound sCD13 detected with rabbit anti-CD13 polyclonal antibody; only the binder purified.

These are yes or no findings as the source states them, for the method shown. Some binding calls cover weakened binding; strength is not graded here.

For the molecule VAHQLQALRRG (peptide, UniProt P10645 447-457) [chromogranin A 429-439 peptide fragment (CgA429-439)], the binding result in experiment [1] is given as “no binding (tested: 10 µM)”.
On to VGCARRYCS (disulfide-bridged) [peptide … (disulfide-bridged, called G4)], for which the binding result in experiment [2], in experiment [3], in experiment [4] and in experiment [1] was “binds” in each case.
